This is one part of the list. Repeats are few or missing, and single values can be far off.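 Imaging used 1,536-well plates; nuclei positive for cleaved PARP by antibody were divided by total DNA-stained nuclei to yield the apoptosis fraction. Doses for screening kept most cells viable, and cell lines differ markedly in resting and induced cleaved-PARP levels.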
Tests used:
Experiment in all cases: cleaved PARP positive nuclei fraction relative to DMSO control; melanoma cells; higher = more apoptosis
Conditions in all cases: library dose: low library concentration; 72 h
MZ2-MEL = system: MZ2-MEL
MeWo = system: MeWo
RPMI7951 = system: RPMI7951
RVH-421 = system: RVH-421
SkMel28 = system: SkMel28
SkMel2 = system: SkMel2
SkMel30 = system: SkMel30
UACC62 = system: UACC62
WM115 = system: WM115
WM1716 = system: WM1716
WM1745 = system: WM1745
WM3526 = system: WM3526
WM3619 = system: WM3619
WM451Lu = system: WM451Lu
SkMel5 = system: SkMel5
UACC257 = system: UACC257

Compound | cleaved PARP positive nuclei fraction (MZ2-MEL) | cleaved PARP positive nuclei fraction (MeWo) | cleaved PARP positive nuclei fraction (RPMI7951) | cleaved PARP positive nuclei fraction (RVH-421) | cleaved PARP positive nuclei fraction (SkMel28) | cleaved PARP positive nuclei fraction (SkMel2) | cleaved PARP positive nuclei fraction (SkMel30) | cleaved PARP positive nuclei fraction (UACC62) | cleaved PARP positive nuclei fraction (WM115) | cleaved PARP positive nuclei fraction (WM1716) | cleaved PARP positive nuclei fraction (WM1745) | cleaved PARP positive nuclei fraction (WM3526) | cleaved PARP positive nuclei fraction (WM3619) | cleaved PARP positive nuclei fraction (WM451Lu) | cleaved PARP positive nuclei fraction (SkMel5) | cleaved PARP positive nuclei fraction (UACC257)
Cc1cn(-c2cc(NC(=O)c3ccc(C)c(Nc4nccc(-c5cccnc5)n4)c3)cc(C(F)(F)F)c2)cn1 [nilotinib] + N.N.[Cl][Pt][Cl] [cisplatin] (first compound 0.2 µM, partner dose 1.6 µM) | 66.9% | 176% | 39.7% | 62.4% | 49.6% | 35.5% | 31.4% | 102% | 139% | 34.3% | 103% | 24.4% | 119% | 58.2% |  | 
Cn1nnc2c(C(N)=O)ncn2c1=O [temozolomide] + Cc1cc(SCc2sc(-c3ccc(C(F)(F)F)c(F)c3)nc2C)ccc1OCC(=O)O [GW0742] (first compound 2 µM, partner dose 2 µM) | 52.4% | 49.9% | 90.7% | 26.9% | 75.9% |  | 64.7% | 43.6% | 64% | 103% | 95.5% | 134% | 76.8% | 69.5% | 30% | 36.8%
C[C@]12O[C@H](C[C@]1(O)CO)n1c3ccccc3c3c4c(c5c6ccccc6n2c5c31)CNC4=O [Lestaurtinib] + CC(C)CCN1c2nc(Nc3cc(F)c(O)c(F)c3)ncc2N(C)C(=O)C1C [BID1870] (first compound 0.004 µM, partner dose 0.2 µM) | 139% | 46.7% | 129% | 86.7% | 71.6% |  | 49.7% | 172% | 226% | 36.9% | 82.2% | 186% | 86% | 104% | 78% | 280%
C[C@]12O[C@H](C[C@]1(O)CO)n1c3ccccc3c3c4c(c5c6ccccc6n2c5c31)CNC4=O [Lestaurtinib] + C=CCn1c(=O)c2cnc(Nc3ccc(N4CCN(C)CC4)cc3)nc2n1-c1cccc(C(C)(C)O)n1 [MK1775] (first compound 0.004 µM, partner dose 0.02 µM) | 79.2% | 125% | 83.9% | 118% | 141% |  | 96.6% | 141% | 242% | 91.4% | 109% | 63.4% | 173% | 57.2% | 51.6% | 80.7%
Nc1cccc2c1CN(C1CCC(=O)NC1=O)C2=O (centres undefined) [lenalidomide] + Cc1cc(SCc2sc(-c3ccc(C(F)(F)F)c(F)c3)nc2C)ccc1OCC(=O)O [GW0742] (first compound 1 µM, partner dose 2 µM) | 85.4% | 157% | 81% | 121% | 87.5% |  | 13.4% | 135% | 325% | 73.5% | 94.5% | 74.1% | 75.1% | 62.8% | 56.7% | 106%
CC(C)(C)c1cnc(CSc2cnc(NC(=O)C3CCNCC3)s2)o1 + Cc1cc(SCc2sc(-c3ccc(C(F)(F)F)c(F)c3)nc2C)ccc1OCC(=O)O [GW0742] (first compound 0.01 µM, partner dose 2 µM) | 169% | 105% | 380% | 116% | 136% |  | 21.5% | 82.7% | 71.2% | 61.7% | 214% | 22.4% | 69.3% | 64.4% | 82% | 165%
C[C@]12O[C@H](C[C@]1(O)CO)n1c3ccccc3c3c4c(c5c6ccccc6n2c5c31)CNC4=O [Lestaurtinib] + COc1cc2c(Oc3ccc4[nH]c(C)cc4c3F)ncnc2cc1OCCCN1CCCC1 [cediranib] (first compound 0.004 µM, partner dose 0.4 µM) | 173% | 154% | 57.7% | 45.4% | 41.4% |  | 28.5% | 42.7% | 56% | 72.9% | 84.3% | 119% | 87.1% | 90.1% | 37.1% | 71.9%
COc1cc2ncnc(Nc3ccc(Oc4ccccc4)cc3)c2cc1OC + C/C(O)=C(\C#N)C(=O)Nc1cc(Br)ccc1Br [LFM-A13] (first compound 2 µM, partner dose 2 µM) | 83.8% | 163% | 42.5% | 33.7% | 156% |  | 158% | 96.2% | 123% | 114% | 110% | 356% | 95.1% | 49.9% | 60.1% | 86.3%
Cc1cc(SCc2sc(-c3ccc(C(F)(F)F)c(F)c3)nc2C)ccc1OCC(=O)O + c1cc(-c2cnn3cc(-c4ccc(OCCN5CCCCC5)cc4)cnc23)ccn1 [Dorsomorphin] (first compound 2 µM, partner dose 0.4 µM) | 81.8% | 54.1% | 178% | 25.4% | 94.4% |  | 42.2% | 172% | 146% | 63.2% | 125% | 81.4% | 110% | 54.5% | 69.1% | 105%
Cc1cc(SCc2sc(-c3ccc(C(F)(F)F)c(F)c3)nc2C)ccc1OCC(=O)O + O=C(O)C(=O)Nc1sc2c(c1C(=O)O)CCNC2 [TCS401] (first compound 2 µM, partner dose 1.66667 µM) | 82.2% | 230% | 94.9% | 58.4% | 83.9% |  | 101% | 159% | 91% | 106% | 107% | 66% | 104% | 216% | 61.5% | 32.2%
Nc1cccc2c1CN(C1CCC(=O)NC1=O)C2=O (centres undefined) [lenalidomide] + O=C(Oc1ccc([N+](=O)[O-])cc1)N1CCC(C(O)(c2ccc3c(c2)OCO3)c2ccc3c(c2)OCO3)CC1 [JZL184] (first compound 1 µM, partner dose 1 µM) | 98% | 102% | 60.4% | 73.6% | 76.3% |  | 71.7% | 121% | 77.8% | 91.3% | 108% | 72.8% | 82.8% | 144% | 61.3% | 76.2%
C/C(O)=C(\C#N)C(=O)Nc1cc(Br)ccc1Br + CCCCCCCCCCCC1=C(O)C(=O)C=C(O)C1=O [Embelin] (first compound 2 µM, partner dose 1.2 µM) | 51.8% | 64.1% | 82.2% | 25.7% | 147% |  | 17.1% | 140% | 144% | 54% | 106% | 250% | 87.1% | 60.3% | 123% | 147%
C[C@]12O[C@H](C[C@]1(O)CO)n1c3ccccc3c3c4c(c5c6ccccc6n2c5c31)CNC4=O [Lestaurtinib] + CN(NC(=O)CC(=O)NN(C)C(=S)c1ccccc1)C(=S)c1ccccc1 [STA4783] (first compound 0.004 µM, partner dose 0.006 µM) | 176% | 108% | 67.7% | 162% | 74.2% |  | 70.1% | 123% | 124% | 106% | 105% | 68.6% | 90.6% | 53.5% | 170% | 84.3%
C[C@]1(c2nc3c(C(N)=O)cccc3[nH]2)CCCN1 [Veliparib] + C/C(O)=C(\C#N)C(=O)Nc1cc(Br)ccc1Br [LFM-A13] (first compound 1.4 µM, partner dose 2 µM) | 55.8% | 23.9% | 49.9% | 105% | 166% |  | 52.6% | 158% | 116% | 89.6% | 134% | 66.5% | 80.6% | 48.8% | 31.1% | 87.2%
C[C@]12O[C@H](C[C@]1(O)CO)n1c3ccccc3c3c4c(c5c6ccccc6n2c5c31)CNC4=O [Lestaurtinib] + NCC(=O)Nc1ccc(-n2nc(C(F)(F)F)cc2-c2ccc3c(ccc4ccccc43)c2)cc1 [OSU03012] (first compound 0.004 µM, partner dose 1 µM) | 97.3% | 117% | 80.1% | 73.3% | 90% |  | 110% | 113% | 58.7% | 72.2% | 94.8% | 98.2% | 83.7% | 305% | 49.6% | 150%
C[As](C)SC[C@H](NC(=O)CC[C@H](N)C(=O)O)C(=O)NCC(=O)O [Darinaparsin] + N#Cc1c(O)c2c(-c3ccc(-c4ccccc4O)cc3)csc2[nH]c1=O [A769662] (first compound 0.4 µM, partner dose 2 µM) | 118% | 43.9% | 105% | 170% | 88.3% |  | 28.9% | 232% | 92.9% | 72.1% | 107% | 150% | 105% | 81.1% | 95.3% | 97.3%
C/C(O)=C(\C#N)C(=O)Nc1cc(Br)ccc1Br + c1cc(-c2cnn3cc(-c4ccc(OCCN5CCCCC5)cc4)cnc23)ccn1 [Dorsomorphin] (first compound 2 µM, partner dose 0.4 µM) | 26.5% | 55.8% | 94.1% | 27.5% | 189% |  | 40% | 99.3% | 86.7% | 146% | 109% | 76% | 65.1% | 151% | 127% | 155%
CN(NC(=O)CC(=O)NN(C)C(=S)c1ccccc1)C(=S)c1ccccc1 + O=C(Oc1ccc([N+](=O)[O-])cc1)N1CCC(C(O)(c2ccc3c(c2)OCO3)c2ccc3c(c2)OCO3)CC1 [JZL184] (first compound 0.006 µM, partner dose 1 µM) | 145% | 76.8% | 126% | 78.4% | 155% |  | 68.5% | 42.3% | 121% | 237% | 231% | 69.5% | 91.3% | 14.9% | 414% | 127%
Cc1ccc(NC(=O)c2cccc(N(C)C)c2)cc1NC(=O)c1ccc(O)cc1 + O=C(Oc1ccc([N+](=O)[O-])cc1)N1CCC(C(O)(c2ccc3c(c2)OCO3)c2ccc3c(c2)OCO3)CC1 [JZL184] (first compound 2 µM, partner dose 1 µM) | 107% | 230% | 94.5% | 53.3% | 64.7% |  | 62.1% | 40.8% | 150% | 118% | 101% | 73.5% | 77.9% | 92% | 38.8% | 52.5%

Individual results from the list:
C[C@]12O[C@H](C[C@]1(O)CO)n1c3ccccc3c3c4c(c5c6ccccc6n2c5c31)CNC4=O [Lestaurtinib] + CC(C)CCN1c2nc(Nc3cc(F)c(O)c(F)c3)ncc2N(C)C(=O)C1C [BID1870] (first compound 0.004 µM, partner dose 0.2 µM) – cleaved PARP positive nuclei fraction (WM1745): 82.2%
C[C@]12O[C@H](C[C@]1(O)CO)n1c3ccccc3c3c4c(c5c6ccccc6n2c5c31)CNC4=O [Lestaurtinib] + CN(NC(=O)CC(=O)NN(C)C(=S)c1ccccc1)C(=S)c1ccccc1 [STA4783] (first compound 0.004 µM, partner dose 0.006 µM) – cleaved PARP positive nuclei fraction (SkMel30): 70.1%

From the supplement of paper PMC4604168 (melanoma cell lines)
